This continues a long series; more values of the same kind are listed elsewhere.
System: KBM7 WT cells (global proteome)
Assay: Quantitative expression proteomics (TMT isobaric tagging), drug vs DMSO
Type: cell-based, human
Excerpt: The mechanism by which the assayed molecules re-program a functional CRL4B complex based on the data shown could be that drug binding to CUL4B recruits a neo-substrate directly to the cullin backbone. Alternatively, drug binding could stabilize CUL4B function to boost time intervals where a functionally competent CUL4B complexes can be formed. Here, the word “functional” implies that the CUL4B backbone of this complex needs to be neddylated, and a CUL4B associated E2 ubiquitin-conjugating enzyme (UBE2G1) needs to be bound. FIG. 9 outlines one possible mechanism. Both predicted mechanisms of action would result in a functionally altered CRL4B complex, and thus an altered stability of drug-induced (neo-) substrates. In order to identify target proteins with a decreased abundance or, in other words, target proteins that become degraded by CRL4B after drug treatment, global proteome composition was measured using quantitative expression proteomics (TMT-labeling). In brief, KBM7 cells were drug treated for 12 hours, lysed, and subjected to isobaric tagging. Ensuing proteomics analysis quantified a total of 7,903 proteins at a minimum spectral count of 2. […] Data on essentiality are taken from Hart et al., G3, August 2017 (PMID: 28655737).
50×10^6 KBM7^WT cells per condition were collected, washed four times with ice-cold PBS, the supernatant aspirated and pellets snap-frozen in liquid N2. Each washed cell pellet was lysed separately in 40 μL of freshly prepared lysis buffer as previously described (see Mayor-Ruiz et al., Mol Cell 2019)
Offline Fractionation via RP-HPLC at high pH and 2D-RP/RP Liquid Chromatography Mass Spectrometry were performed as previously described (see Mayor-Ruiz et al., Mol Cell 2019).
Acquired raw data files were processed using the Proteome Discoverer 2.2.0 platform, utilizing the Sequest HT database search engine and Percolator validation software node (V3.04) to remove false positives with a false discovery rate (FDR) of 1% on peptide and protein level under strict conditions. Searches were performed with full tryptic digestion against the human SwissProt database v2017.06 with up to two allowed miscleavage sites. Oxidation (+15.9949 Da) of methionine was set as variable modification, whilst carbamidomethylation (+57.0214 Da) of cysteine residues and TMT 6-plex labelling of peptide N-termini and lysine residues were set as fixed modifications. Data was searched with mass tolerances of ±10 ppm and ±0.02 Da on the precursor and fragment ions, respectively. Results were filtered to include peptide spectrum matches (PSMs) with Sequest HT cross-correlation factor (Xcorr) scores of […] and high peptide confidence assigned by Percolator. MS^2 signal-to-noise values (S/N) values of TMT reporter ions were used to estimate peptide/protein abundance changes. PSMs with precursor isolation interference values of ≥ 50% and average TMT-reporter ion S/N≤10 were excluded from quantitation. Only unique peptides were used for TMT quantitation as well as for TOP3 label-free quantitation. Isotopic impurity correction and TMT channel-normalization based on total peptide amount were applied. For statistical analysis and p-value calculation, the integrated ANOVA hypothesis test was used. TMT ratios with p-values below 0.01 were considered as significant. Only proteins with >1 peptide detected and >1 unique peptide detected were considered for further analysis. For the calling of destabilized proteins, a log 2 fold change threshold (drug/DMSO) of −0.3 was applied.
Comparison of overall proteome-wide changes in KBM7 cells treated with IC020772.1 (2.5 μM), IC021313.2 (7 μM) or T6938051 (3.5 μM) for 5 h and 12h, using quantitative proteomics based on isobaric tagging.
The protein names in Table 4, Table 5 and Table 6 refer to the protein names as provided by HUGO Gene Nomenclature Committee (HGNC) database. […]

## O=C(CSc1nnc2c(n1)[nH]c1ccccc12)Nc1ccc(Cl)cn1 [IC020772.1]
ABHD15 (Q6UXT9)
  log2FC (IC020772.1/DMSO): −0.3364
ACTR3B (Q9P1U1-1)
  log2FC (IC020772.1/DMSO): −0.3201
ACTR8 (Q9H981-1)
  log2FC (IC020772.1/DMSO): −0.364
ADAM22 (Q9P0K1-1)
  log2FC (IC020772.1/DMSO): −0.3715
AGGF1 (Q8N302-1)
  log2FC (IC020772.1/DMSO): −0.662
AKIRIN2 (Q53H80)
  log2FC (IC020772.1/DMSO): −1.466
ALKBH1 (Q13686)
  log2FC (IC020772.1/DMSO): −0.4422
AMD1 (P17707-1)
  log2FC (IC020772.1/DMSO): −0.8211
ANKRD12 (Q6UB98-1)
  log2FC (IC020772.1/DMSO): −0.3364
ANKRD40 (Q6AI12)
  log2FC (IC020772.1/DMSO): −0.4403
ANKS3 (Q6ZW76-1)
  log2FC (IC020772.1/DMSO): −0.4442
AP5B1 (Q2VPB7)
  log2FC (IC020772.1/DMSO): −0.3401
APPBP2 (Q92624)
  log2FC (IC020772.1/DMSO): −1.165
ARL11 (Q969Q4)
  log2FC (IC020772.1/DMSO): −0.6804
ARL13B (Q3SXY8-1)
  log2FC (IC020772.1/DMSO): −0.6781
ARVCF (O00192-1)
  log2FC (IC020772.1/DMSO): −0.6712
ATAD2 (Q6PL18-1)
  log2FC (IC020772.1/DMSO): −0.4461
ATF6B (Q99941-1)
  log2FC (IC020772.1/DMSO): −0.699
ATF7 (P17544-6)
  log2FC (IC020772.1/DMSO): −0.9434
BAIAP2 (Q9UQB8-1)
  log2FC (IC020772.1/DMSO): −0.4093
BCL7A (Q4VC05-1)
  log2FC (IC020772.1/DMSO): −0.3346
BIN3 (Q9NQY0-1)
  log2FC (IC020772.1/DMSO): −0.4016
BORA (Q6PGQ7-1)
  log2FC (IC020772.1/DMSO): −0.8468
BRCA1 (P38398-7)
  log2FC (IC020772.1/DMSO): −0.4383
BUB1 (O43683-1)
  log2FC (IC020772.1/DMSO): −0.8916
BUB1B (O60566-3)
  log2FC (IC020772.1/DMSO): −0.7084
C2CD3 (Q4AC94-5)
  log2FC (IC020772.1/DMSO): −0.4461
C5orf51 (A6NDU8)
  log2FC (IC020772.1/DMSO): −0.4055
C9orf40 (Q8IXQ3)
  log2FC (IC020772.1/DMSO): −0.6643
CALCOCO2 (Q13137-4)
  log2FC (IC020772.1/DMSO): −0.8186
CCDC14 (Q49A88-1)
  log2FC (IC020772.1/DMSO): −0.3978
CD37 (P11049-1)
  log2FC (IC020772.1/DMSO): −0.3383
CD55 (P08174-7)
  log2FC (IC020772.1/DMSO): −0.3437
CD99L2 (Q8TCZ2-1)
  log2FC (IC020772.1/DMSO): −0.3715
CD151 (P48509)
  log2FC (IC020772.1/DMSO): −0.48
CDC123 (O75794)
  log2FC (IC020772.1/DMSO): −0.8314
CDCA7L (Q96GN5-1)
  log2FC (IC020772.1/DMSO): −0.4131
CDK5RAP2 (Q96SN8-1)
  log2FC (IC020772.1/DMSO): −0.4521
CEBPA (P49715-4)
  log2FC (IC020772.1/DMSO): −0.3978
CEP44 (Q9C0F1-2)
  log2FC (IC020772.1/DMSO): −0.364
CEP55 (Q53EZ4-1)
  log2FC (IC020772.1/DMSO): −0.6735
CEP76 (Q8TAP6-1)
  log2FC (IC020772.1/DMSO): −0.3401
CETN3 (O15182)
  log2FC (IC020772.1/DMSO): −0.6735
CFAP97 (Q9P2B7-1)
  log2FC (IC020772.1/DMSO): −1.168
CHAC2 (Q8WUX2)
  log2FC (IC020772.1/DMSO): −0.3659
CHAF1A (Q13111-1)
  log2FC (IC020772.1/DMSO): −0.4131
CHKA (P35790-1)
  log2FC (IC020772.1/DMSO): −0.4521
CHRDL1 (Q9BU40-4)
  log2FC (IC020772.1/DMSO): −0.8186
CHST11 (Q9NPF2-1)
  log2FC (IC020772.1/DMSO): −0.4481
CHTOP (Q9Y3Y2-3)
  log2FC (IC020772.1/DMSO): −0.6897
CHURC1 (Q8WUH1-1)
  log2FC (IC020772.1/DMSO): −0.6666
CLSPN (Q9HAW4-1)
  log2FC (IC020772.1/DMSO): −0.7131
CLTA (P09496-2)
  log2FC (IC020772.1/DMSO): −0.3733
CMIP (Q8IY22-1)
  log2FC (IC020772.1/DMSO): −0.3346
CNKSR2 (Q8WXI2-1)
  log2FC (IC020772.1/DMSO): −0.8009
CNOT2 (Q9NZN8-1)
  log2FC (IC020772.1/DMSO): −0.4383
COA5 (Q86WW8)
  log2FC (IC020772.1/DMSO): −0.9187
COA7 (Q96BR5)
  log2FC (IC020772.1/DMSO): −0.4093
COX19 (Q49B96)
  log2FC (IC020772.1/DMSO): −0.3733
CREB1 (P16220-1)
  log2FC (IC020772.1/DMSO): −0.3677
CRIPT (Q9P021)
  log2FC (IC020772.1/DMSO): −0.963
CRY2 (Q49AN0-1)
  log2FC (IC020772.1/DMSO): −0.3997
CTNNBIP1 (Q9NSA3)
  log2FC (IC020772.1/DMSO): −0.4442
CXorf38 (Q8TB03-1)
  log2FC (IC020772.1/DMSO): −0.3346
CXorf56 (Q9H5V9-1)
  log2FC (IC020772.1/DMSO): −0.3401
DAPK1 (P53355-3)
  log2FC (IC020772.1/DMSO): −0.3959
DCAF1 (Q9Y4B6-1)
  log2FC (IC020772.1/DMSO): −0.4112
DCAF12 (Q5T6F0)
  log2FC (IC020772.1/DMSO): −0.881
DCLREIA (Q6PJP8)
  log2FC (IC020772.1/DMSO): −0.3383
DEAFI (O75398-1)
  log2FC (IC020772.1/DMSO): −0.4383
DHDDS (Q86SQ9-2)
  log2FC (IC020772.1/DMSO): −0.3419
DHRS2 (Q13268-2)
  log2FC (IC020772.1/DMSO): −0.3696
DHX32 (Q7L7V1-1)
  log2FC (IC020772.1/DMSO): −0.48
DIXDC1 (Q155Q3-1)
  log2FC (IC020772.1/DMSO): −0.9024
DMAC2 (Q9NW81-4)
  log2FC (IC020772.1/DMSO): −0.4016
DNAJC25 (Q9H1X3-1)
  log2FC (IC020772.1/DMSO): −0.4055
DOPEYI (Q5JWR5)
  log2FC (IC020772.1/DMSO): −0.3419
E2F3 (O00716-1)
  log2FC (IC020772.1/DMSO): −0.6873
EAPP (Q56P03)
  log2FC (IC020772.1/DMSO): −0.3978
EEF1E1 (O43324-1)
  log2FC (IC020772.1/DMSO): −0.3997
EEF2K (O00418)
  log2FC (IC020772.1/DMSO): −0.4016
EIF4H (Q15056-1)
  log2FC (IC020772.1/DMSO): −0.3383
ELF4 (Q99607)
  log2FC (IC020772.1/DMSO): −0.6827
ENDOG (Q14249)
  log2FC (IC020772.1/DMSO): −0.4779
ESCO2 (Q56NI9-1)
  log2FC (IC020772.1/DMSO): −0.9051
FADD (Q13158)
  log2FC (IC020772.1/DMSO): −0.4521
FADS2 (O95864-1)
  log2FC (IC020772.1/DMSO): −1.582
FAM53B (Q14153-1)
  log2FC (IC020772.1/DMSO): −0.3201
FAM92A (A1XBS5-1)
  log2FC (IC020772.1/DMSO): −0.9159
FAM124B (Q9H5Z6-1)
  log2FC (IC020772.1/DMSO): −0.4461
FAM136A (Q96C01)
  log2FC (IC020772.1/DMSO): −0.4131

— patent US12410152B2, “Oxazole and thioazole-type cullin ring ubiquitin ligase compounds and uses thereof” (Proxygen GmbH, priority 2019, dated 2025)
